Measurements taken from PubChem BioAssay AID2685 (National Center for Advancing Translational Sciences (NCATS), 2010).
Some of the results follow. Further columns of the screen follow, without active or inactive calls. The list favours compounds with an active or inconclusive main result. Potencies come from curve fits of mixed quality, noted in brackets.

Assay: qHTS Assay for Lipid Storage Modulators in Drosophila S3 Cells;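 as to cell number change: cells counted by Cell Tracker Red CMTPX staining in the red channel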
Details: BODIPY lipid droplet fluorescence, 18-24 h; for cell number change: measured here: cell count max response, cells fed with added oleic acid
Outline: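 Drosophila S3 cells loaded with oleic acid (400 uM, as added) and compounds at several concentrations; lipid droplets imaged by 488-nm laser-scanning cytometry, 500–530 nm intensity and object ratio to cell channel. Percent activity normalized to 20 uM Triacsin C.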

[1] = measured here: lipid fluorescence (Fed channel) AC50, cells fed with added oleic acid
[2] = measured here: cell number channel AC50, cells fed with added oleic acid

SMILES | cell number change [%] | AC50 [1] | AC50 [2]
CCOc1cc(/C=N/NC(N)=O)cc(Br)c1OCC(=O)Nc1cccc2ccccc12 | -4.71 | – | –
COc1cc(OC)cc(C(=O)NC(=S)N(Cc2ccccc2)C(C)C)c1 | -23.5 | 29.1 µM [falling, single point] | –
CNc1nnc(SCC(=O)N2c3ccccc3NC(=O)CC2C)s1 (configuration not stated) | 7.55 | 0.291 µM [rising, full curve, poor fit] | –
COc1ccccc1CCC(=O)Nc1cc(S(=O)(=O)N2CCOCC2)ccc1N1CCCC1 | -37.3 | 0.092 µM [falling, partial curve, poor fit] | 1.64 µM [falling, partial curve, poor fit]
COc1ccc(Cl)cc1NC(=O)C1CCCN(c2cc(C)nc3ncnn23)C1 (configuration not stated) | -17.7 | 4.61 µM [rising, full curve] | –
Cc1nn(Cc2ccccc2Cl)c(C)c1C(=O)NCc1ccco1 | 5.21 | 0.13 µM [falling, full curve, poor fit] | –
Cc1ccc(S(=O)(=O)N2CCCC2C(=O)NCc2ccncc2)cc1 (configuration not stated) | -6.49 | 0.146 µM [falling, full curve, poor fit] | –
Cc1cc([N+](=O)[O-])ccc1NC(=O)CCC(=O)N1CCCC1 | -3.47 | 29.1 µM [rising, single point] | –
O=C(NNC1=C(C(=O)C(F)(F)F)CCC1)c1ccc(Cl)cc1 | -0.0707 | – | –
O=C(c1cc(-c2ccccc2)nc2ccccc12)N1CCCc2ccccc21 | 1.55 | 29.1 µM [rising, single point] | –
CCOC(=O)C1(C(=O)OCC)CC1c1ccccc1 (configuration not stated) | -26 | 5.17 µM [falling, partial curve] | 0.82 µM [falling, full curve, poor fit]
NCCS | -25.8 | – | 3.26 µM [falling, full curve, poor fit]
COc1cc([C@@H]2c3cc4c(cc3[C@@H](O)[C@@H](CO)[C@@H]2CO)OCO4)cc(OC)c1O[Si](C)(C)C(C)(C)C | -76 | 20.6 µM [falling, partial curve] | 18.4 µM [falling, partial curve]
CC(C)CC(COCc1ccc(Cl)cc1)N1CCN(C(=O)c2ccc(C(F)(F)F)cc2)CCC1=O (configuration not stated) | -39 | 0.82 µM [falling, full curve, poor fit] | 0.92 µM [falling, full curve, poor fit]
COc1ccc(C(CCNCc2ccc(OC)c(OC)c2)c2ccc(F)cc2)cc1 (configuration not stated) | -23.3 | 32.6 µM [falling, single point] | –

Exported in CSV form: 3 of the compounds above
SMILES,cell number change [%],AC50 [1],AC50 [2]
COc1cc(OC)cc(C(=O)NC(=S)N(Cc2ccccc2)C(C)C)c1,-23.5,"29.1 µM [falling, single point]",–
COc1ccccc1CCC(=O)Nc1cc(S(=O)(=O)N2CCOCC2)ccc1N1CCCC1,-37.3,"0.092 µM [falling, partial curve, poor fit]","1.64 µM [falling, partial curve, poor fit]"
CC(C)CC(COCc1ccc(Cl)cc1)N1CCN(C(=O)c2ccc(C(F)(F)F)cc2)CCC1=O (configuration not stated),-39,"0.82 µM [falling, full curve, poor fit]","0.92 µM [falling, full curve, poor fit]"
